Measured data: PubChem BioAssay AID1259276 (Sanger Institute, 2017)
In all, the deposit lists 794 reagents; below is a part drawn at random. Over the whole deposit, 24 (3%) are marked active. 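Calls come only from the siRNA-alone arm; drug synergy scores do not affect them.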 Unmarked entries are inactive. Viability is capped at 1. Further read-outs or replicates are left out here. Not given: the amount of reagent, the time to read-out.

- Assay: 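Kinome-wide search for kinases colon cancer cells need, and for drug partners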 (primary screen)
- System: human C2BBe1 colorectal cancer cells
- Knock-down reagent: siRNA pool against human genes
- Challenge: DMSO vehicle, or one anchor drug: BYL719 at 1 µM, cetuximab at 5 µg/ml, or trametinib at 10 nM; exposure length not stated
- Read-out: 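Cell viability as a fraction of non-targeting control wells, mean of replicates, also as a control-based robust z-score, plus a synergy score for each anchor drug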
- Reading the numbers: viability robust z-score, siRNA alone and viability vs control, siRNA alone: higher = more viable cells after knock-down
- Hit rule: 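a siRNA pool tested without drug is essential if its viability robust z-score falls under -3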
- Calls: active = essential (siRNA alone); inactive = no change (siRNA alone)

{"gene":"FLT4","viability robust z-score, siRNA alone":0.472,"viability vs control, siRNA alone":1}
{"gene":"ABL1","viability robust z-score, siRNA alone":0.472,"viability vs control, siRNA alone":1}
{"gene":"PRKG1","viability robust z-score, siRNA alone":0.472,"viability vs control, siRNA alone":1}
{"gene":"MKNK2","viability robust z-score, siRNA alone":-0.599,"viability vs control, siRNA alone":0.932}
{"gene":"STK32B","viability robust z-score, siRNA alone":0.472,"viability vs control, siRNA alone":1}
{"gene":"CDKL1","viability robust z-score, siRNA alone":0.472,"viability vs control, siRNA alone":1}
{"gene":"CDC7","viability robust z-score, siRNA alone":-2.28,"viability vs control, siRNA alone":0.826}
{"gene":"CDK5","viability robust z-score, siRNA alone":0.472,"viability vs control, siRNA alone":1}
{"gene":"PRKAA1","viability robust z-score, siRNA alone":0.472,"viability vs control, siRNA alone":1}
{"gene":"CALM2","viability robust z-score, siRNA alone":0.472,"viability vs control, siRNA alone":1}
{"gene":"BCKDK","viability robust z-score, siRNA alone":0.472,"viability vs control, siRNA alone":1}
{"gene":"VRK3","viability robust z-score, siRNA alone":"-3.21 (active)","viability vs control, siRNA alone":0.768}
{"gene":"ALK","viability robust z-score, siRNA alone":0.472,"viability vs control, siRNA alone":1}
{"gene":"SYNCRIP","viability robust z-score, siRNA alone":0.472,"viability vs control, siRNA alone":1}
{"gene":"PHKA2","viability robust z-score, siRNA alone":0.472,"viability vs control, siRNA alone":1}
{"gene":"EPHA2","viability robust z-score, siRNA alone":-0.0483,"viability vs control, siRNA alone":0.967}
{"gene":"FES","viability robust z-score, siRNA alone":0.472,"viability vs control, siRNA alone":1}
{"gene":"CSNK1A1L","viability robust z-score, siRNA alone":0.472,"viability vs control, siRNA alone":1}
{"gene":"BRDT","viability robust z-score, siRNA alone":0.472,"viability vs control, siRNA alone":1}
{"gene":"LMTK2","viability robust z-score, siRNA alone":-0.676,"viability vs control, siRNA alone":0.928}

Next part, starting with the last 4 of the part before.
{"gene":"FES","viability robust z-score, siRNA alone":0.472,"viability vs control, siRNA alone":1}
{"gene":"CSNK1A1L","viability robust z-score, siRNA alone":0.472,"viability vs control, siRNA alone":1}
{"gene":"BRDT","viability robust z-score, siRNA alone":0.472,"viability vs control, siRNA alone":1}
{"gene":"LMTK2","viability robust z-score, siRNA alone":-0.676,"viability vs control, siRNA alone":0.928}
{"gene":"TSSK3","viability robust z-score, siRNA alone":-0.286,"viability vs control, siRNA alone":0.952}
{"gene":"GRK2","viability robust z-score, siRNA alone":-0.0307,"viability vs control, siRNA alone":0.968}
{"gene":"STK17A","viability robust z-score, siRNA alone":-0.175,"viability vs control, siRNA alone":0.959}
{"gene":"PPP2R1A","viability robust z-score, siRNA alone":0.472,"viability vs control, siRNA alone":1}
{"gene":"DAPK1","viability robust z-score, siRNA alone":0.472,"viability vs control, siRNA alone":1}
{"gene":"STK38L","viability robust z-score, siRNA alone":-2.85,"viability vs control, siRNA alone":0.791}
{"gene":"NEK10","viability robust z-score, siRNA alone":0.472,"viability vs control, siRNA alone":1}
{"gene":"MTOR","viability robust z-score, siRNA alone":0.472,"viability vs control, siRNA alone":1}
{"gene":"SGK1","viability robust z-score, siRNA alone":0.472,"viability vs control, siRNA alone":1}
{"gene":"NUAK1","viability robust z-score, siRNA alone":0.472,"viability vs control, siRNA alone":1}
{"gene":"ARAF","viability robust z-score, siRNA alone":0.472,"viability vs control, siRNA alone":1}
{"gene":"PIK3C3","viability robust z-score, siRNA alone":-1.2,"viability vs control, siRNA alone":0.894}
{"gene":"ACVR1","viability robust z-score, siRNA alone":0.472,"viability vs control, siRNA alone":1}
{"gene":"CREBBP","viability robust z-score, siRNA alone":0.472,"viability vs control, siRNA alone":1}
{"gene":"PGK2","viability robust z-score, siRNA alone":0.472,"viability vs control, siRNA alone":1}
{"gene":"STK31","viability robust z-score, siRNA alone":0.472,"viability vs control, siRNA alone":1}
